These results are taken from PubChem BioAssay AID1259423 (Fisher Drug Discovery Resource Center, 2018).

The other results are listed elsewhere or left out.

The assay has as its system Aedes aegypti neuropeptide Y-like receptor 7 (NPYLR7). In words: agonists of mosquito NPYLR7 receptor, primary screen, cell-based, Aedes aegypti, calcium fluorescence, mosquito biting behavior (AID 1259423).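 Note: 0% = vehicle and 100% = reference agonist at the receptor.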 As to conditions: HEK293T NPYLR7/Galpha15, GCaMP6s calcium fluorescence; measured here: Max-Min RFU normalised activation; at 10 µM; stronger effect = higher value.
Turning to `CN(CCCl)CCCl`, the activation was -13.8%.
